Values from PubChem BioAssay AID504786 (Drosophila RNAi Screening Center, 2011).

Aim: 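Positive regulators of HIF-driven reporter output in Drosophila cells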 (primary screen)
Cells: Drosophila S2 cells with a stable HIF luciferase reporter
Knock-down reagent: long dsRNA against Drosophila genes, about 0.2 µg dsRNA per well of a 384-well plate
Duration: three days of knock-down, then 20 h of DFO before reading
Challenge: desferrioxamine (DFO) at 100 µM, an iron chelator that mimics hypoxia, for 20 h
Read-out: 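HIF reporter luminescence in cells given 100 µM DFO for 20 h, using the mouse ldh-a hypoxia-response element, scored as per-plate z-scores; higher means greater loss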
Direction: z-score: higher = stronger loss of HIF reporter signal
In all, the deposit lists about 21,000 reagents; this is a random part of those with a known target gene and a result. 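Primary screen; positive scores mean lost reporter signal, so the sign may be inverted from the usual convention.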 Names joined by + are all predicted targets of the reagent.

| gene | PubChem SID | z-score, replicate 1 | z-score, replicate 2 | z-score, replicate 3 | z-score, replicate 4 |
| --- | --- | --- | --- | --- | --- |
| CG33309 (GeneID 2768926) | SID104181213 | -0.1 | 0 | – | – |
| CG6294 + CG6299 | SID104199772 | -0.4 | 0 | – | – |
| Duba (GeneID 39302) | SID104190374 | -0.1 | 0.2 | – | – |
| Abcd3 (GeneID 32992) | SID104199280 | 0.6 | 0 | – | – |
| CG8303 (GeneID 36858) | SID104186932 | -0.3 | -0.4 | – | – |
| l(2)05714 (GeneID 46066) | SID104182910 | -0.3 | -0.4 | – | – |
| CG6788 (GeneID 32773) | SID104199799 | -0.4 | -1.1 | – | – |
| Bicra (GeneID 43435) | SID104194209 | 0 | -0.5 | – | – |
| Tim17a1 (GeneID 41500) | SID104193976 | -0.4 | -0.8 | – | – |
| CG7920 (GeneID 43562) | SID104196138 | -0.4 | -0.4 | – | – |
| CG17486 (GeneID 3355138) | SID104187544 | -0.2 | -0.7 | – | – |
| CG42597 (GeneID 8674090) | SID104183473 | 0.6 | 0 | – | – |
| aspr (GeneID 33013) | SID104200481 | -0.5 | -0.3 | – | – |
| aspr (GeneID 33013) | SID104200482 | -0.2 | -0.2 | – | – |
| ben (GeneID 32358) | SID104200102 | -0.5 | -0.2 | – | – |
| ben (GeneID 32358) | SID104201053 | -0.4 | -0.7 | – | – |
| CG5697 (GeneID 42483) | SID104195650 | 0.4 | -0.3 | – | – |
| Samtor (GeneID 37934) | SID104184182 | -0.3 | -0.7 | – | – |
| Teh3 (GeneID 50170) | SID104188329 | -0.2 | -0.3 | – | – |
| Naglu (GeneID 46386) | SID104182059 | -0.2 | -0.5 | – | – |
| twy (GeneID 39330) | SID104190354 | -0.3 | -0.6 | – | – |
| ND-MWFE (GeneID 5740593) | SID104186156 | -0.1 | -0.1 | – | – |
| Fum2 (GeneID 31606) | SID104198137 | -0.2 | 0.7 | – | – |
| CG11626 (GeneID 42323) | SID104194128 | -0.9 | -0.1 | – | – |
| Octalpha2R (GeneID 42258) | SID104193111 | -0.4 | -0.1 | – | – |
| Octalpha2R (GeneID 42258) | SID104195106 | -0.7 | 0.2 | – | – |
| Alp8 (GeneID 37540) | SID104184145 | -0.2 | -0.6 | – | – |
| CG9083 (GeneID 37982) | SID104184417 | -0.2 | 0.1 | – | – |
| Gp93 (GeneID 43354) | SID104195619 | -0.3 | -0.2 | – | – |
| Nepl18 (GeneID 43410) | SID104194671 | -0.2 | -1 | – | – |
| Tehao (GeneID 34761) | SID104183241 | -0.2 | -0.1 | – | – |
| tea (GeneID 36027) | SID104185902 | -0.4 | -0.7 | – | – |
| tea (GeneID 36027) | SID104186028 | -0.3 | -0.6 | – | – |
| CG10747 (GeneID 35295) | SID104181896 | -0.3 | -0.4 | – | – |
| CG9377 (GeneID 34743) | SID104183009 | -0.3 | -0.3 | – | – |
| CG31637 (GeneID 33914) | SID104182062 | -0.3 | -0.1 | – | – |
| CG31637 (GeneID 33914) | SID104183055 | -0.2 | -0.3 | – | – |
| His3.3A (GeneID 33736) | SID104183135 | -0.1 | -0.1 | – | – |
| Muc11A (GeneID 32174) | SID104199290 | -0.3 | -0.9 | -0.4 | 0.3 |
| Hmbs (GeneID 46140) | SID104188424 | -0.3 | -0.6 | – | – |
| wcd (GeneID 36831) | SID104186843 | -0.2 | 0 | – | – |
| CG31141 (GeneID 318605) | SID104193438 | -0.2 | -0.1 | – | – |

The list goes on, starting with the last 11 of the part before.
| gene | PubChem SID | z-score, replicate 1 | z-score, replicate 2 | z-score, replicate 3 | z-score, replicate 4 |
| --- | --- | --- | --- | --- | --- |
| tea (GeneID 36027) | SID104185902 | -0.4 | -0.7 | – | – |
| tea (GeneID 36027) | SID104186028 | -0.3 | -0.6 | – | – |
| CG10747 (GeneID 35295) | SID104181896 | -0.3 | -0.4 | – | – |
| CG9377 (GeneID 34743) | SID104183009 | -0.3 | -0.3 | – | – |
| CG31637 (GeneID 33914) | SID104182062 | -0.3 | -0.1 | – | – |
| CG31637 (GeneID 33914) | SID104183055 | -0.2 | -0.3 | – | – |
| His3.3A (GeneID 33736) | SID104183135 | -0.1 | -0.1 | – | – |
| Muc11A (GeneID 32174) | SID104199290 | -0.3 | -0.9 | -0.4 | 0.3 |
| Hmbs (GeneID 46140) | SID104188424 | -0.3 | -0.6 | – | – |
| wcd (GeneID 36831) | SID104186843 | -0.2 | 0 | – | – |
| CG31141 (GeneID 318605) | SID104193438 | -0.2 | -0.1 | – | – |
| CG15186 (GeneID 40797) | SID104192358 | -0.4 | -0.4 | – | – |
| CkIIalpha (GeneID 48448) | SID104191738 | 1.1 | 1.3 | – | – |
| st (GeneID 39836) | SID104191191 | -0.2 | 1 | – | – |
| chic (GeneID 33834) | SID104183299 | -0.1 | -0.3 | – | – |
| CG3655 (GeneID 31056) | SID104197468 | 0 | -0.7 | – | – |
| CG3655 (GeneID 31056) | SID104197973 | -0.3 | -0.4 | – | – |
| CG3655 (GeneID 31056) | SID104198269 | -0.4 | -0.4 | – | – |
| skl (GeneID 40016) | SID104189842 | -0.3 | -0.2 | – | – |
| CG12017 (GeneID 38404) | SID104188017 | -0.2 | -0.4 | – | – |
| Ipk1 (GeneID 37360) | SID104184027 | -0.2 | -0.3 | – | – |
| Ipk1 (GeneID 37360) | SID104184028 | -0.2 | 0.5 | – | – |
| Ipk1 (GeneID 37360) | SID104184029 | -0.4 | -0.7 | – | – |
| RhoGEF3 (GeneID 38050) | SID104188143 | -0.4 | -0.2 | – | – |
| RhoGEF3 (GeneID 38050) | SID104188144 | -0.2 | -0.2 | – | – |
| ZIPIC (GeneID 43566) | SID104196141 | -0.3 | -0.7 | – | – |
| GlcAT-S (GeneID 34282) | SID104182523 | -0.2 | -0.4 | – | – |
| CG9988 (GeneID 43388) | SID104196379 | -0.2 | 0 | – | – |
| Ca-beta (GeneID 34557) | SID104182198 | 0 | -0.1 | – | – |
| Ca-beta (GeneID 34557) | SID104182199 | -0.4 | -1 | – | – |
| Ca-beta (GeneID 34557) | SID104183077 | -0.3 | -0.6 | -0.5 | -0.3 |
| CG15293 (GeneID 34828) | SID104181711 | -0.2 | -0.6 | – | – |
| sds22 (GeneID 42091) | SID104196844 | -0.2 | -0.4 | – | – |
| Hr78 (GeneID 40378) | SID104191658 | -0.3 | 0 | – | – |
| CG7745 (GeneID 36210) | SID104186829 | 0.7 | 0.1 | – | – |
| CG3528 (GeneID 33436) | SID104180403 | -0.2 | 0.9 | – | – |
| srl (GeneID 40562) | SID104192132 | -0.3 | -0.4 | – | – |
| Ube3a (GeneID 39266) | SID104190392 | 0 | -0.2 | – | – |
| CG32163 (GeneID 317891) | SID104189234 | -0.6 | 0.2 | -0.4 | -0.3 |
| dysc (GeneID 39533) | SID104190065 | -0.3 | -0.5 | -0.5 | -0.3 |
| dysc (GeneID 39533) | SID104190832 | -0.2 | 0.2 | – | – |
| CG15922 (GeneID 50048) | SID104194920 | 0.6 | -0.4 | – | – |
| CG1143 (GeneID 38329) | SID104187980 | -0.1 | -0.3 | – | – |
| CG32687 (GeneID 31980) | SID104198002 | -0.4 | 0.3 | – | – |
| CG32687 (GeneID 31980) | SID104198029 | -0.3 | -0.1 | – | – |
| alpha-Man-IIb (GeneID 41913) | SID104196690 | -0.2 | -0.1 | – | – |
| CG14710 (GeneID 41393) | SID104194725 | -0.4 | -0.6 | – | – |
| RhoGDI (GeneID 40179) | SID104190711 | -0.3 | -0.5 | – | – |
| Anp (GeneID 43595) | SID104193904 | -0.1 | 0.4 | – | – |
| Ypel (GeneID 31949) | SID104197788 | -0.2 | -0.2 | – | – |
| CG32075 (GeneID 326192) | SID104190414 | -0.1 | -0.2 | – | – |
| b (GeneID 34791) | SID104183279 | -0.3 | 0.8 | – | – |
| Nepl16 (GeneID 43014) | SID104194442 | -0.3 | -0.5 | – | – |
| Gdap1 (GeneID 38597) | SID104190229 | -0.2 | -0.7 | – | – |
| CG14736 (GeneID 41466) | SID104194748 | -0.3 | 0.2 | – | – |
| sqd (GeneID 41666) | SID104194952 | 0.7 | 0.2 | – | – |
| sqd (GeneID 41666) | SID104196858 | -0.2 | 4.8 | – | – |
| CG6833 (GeneID 39559) | SID104190513 | 0.1 | 0.1 | – | – |
| CG31068 (GeneID 318578) | SID104193612 | -0.1 | -0.3 | – | – |
| BomBc1 (GeneID 37099) | SID104186293 | -0.4 | -0.5 | – | – |
| Not1 (GeneID 5740252) | SID104186579 | 1.1 | -0.6 | – | – |
| Not1 (GeneID 5740252) | SID104186586 | -0.3 | -0.5 | – | – |
| CG10877 (GeneID 42432) | SID104194066 | 0.3 | -1.3 | – | – |
| BI-1 (GeneID 38936) | SID104190574 | -0.2 | -0.2 | – | – |
| RpLP0 (GeneID 40451) | SID104191670 | -0.4 | 0.1 | – | – |
| Scp2 (GeneID 42015) | SID104192958 | -0.6 | -0.3 | – | – |
| Scp2 (GeneID 42015) | SID104196646 | -0.2 | -0.4 | – | – |
| Btk (GeneID 34132) | SID104181800 | -0.4 | -0.9 | – | – |
| Btk (GeneID 34132) | SID104182458 | -0.3 | -0.8 | – | – |
| CG18273 (GeneID 30991) | SID104197942 | -0.4 | 0.9 | – | – |
| CG18273 (GeneID 30991) | SID104198297 | -0.3 | -0.4 | – | – |
| CG8329 (GeneID 39123) | SID104190770 | -0.4 | -0.7 | – | – |
| Mpcp2 (GeneID 39587) | SID104191018 | -0.1 | -0.2 | – | – |
| CG9743 (GeneID 43593) | SID104196344 | -0.2 | 0 | – | – |
| mEFTs (GeneID 35060) | SID104182745 | 0.2 | 0.2 | – | – |
